In doi:10.1101/2020.06.19.160762:
These are yes or no findings as the source states them, for the method shown. Binding seen in cells or lysates may run through a third protein. Some results given as binding are weak or reduced against the parent protein; the word gives no strength.

Protein sequences, listed by entry. Tags and fused reporters are not part of them. Residues count along the entry.
UniProt Q9UQ35, residues 1-2748: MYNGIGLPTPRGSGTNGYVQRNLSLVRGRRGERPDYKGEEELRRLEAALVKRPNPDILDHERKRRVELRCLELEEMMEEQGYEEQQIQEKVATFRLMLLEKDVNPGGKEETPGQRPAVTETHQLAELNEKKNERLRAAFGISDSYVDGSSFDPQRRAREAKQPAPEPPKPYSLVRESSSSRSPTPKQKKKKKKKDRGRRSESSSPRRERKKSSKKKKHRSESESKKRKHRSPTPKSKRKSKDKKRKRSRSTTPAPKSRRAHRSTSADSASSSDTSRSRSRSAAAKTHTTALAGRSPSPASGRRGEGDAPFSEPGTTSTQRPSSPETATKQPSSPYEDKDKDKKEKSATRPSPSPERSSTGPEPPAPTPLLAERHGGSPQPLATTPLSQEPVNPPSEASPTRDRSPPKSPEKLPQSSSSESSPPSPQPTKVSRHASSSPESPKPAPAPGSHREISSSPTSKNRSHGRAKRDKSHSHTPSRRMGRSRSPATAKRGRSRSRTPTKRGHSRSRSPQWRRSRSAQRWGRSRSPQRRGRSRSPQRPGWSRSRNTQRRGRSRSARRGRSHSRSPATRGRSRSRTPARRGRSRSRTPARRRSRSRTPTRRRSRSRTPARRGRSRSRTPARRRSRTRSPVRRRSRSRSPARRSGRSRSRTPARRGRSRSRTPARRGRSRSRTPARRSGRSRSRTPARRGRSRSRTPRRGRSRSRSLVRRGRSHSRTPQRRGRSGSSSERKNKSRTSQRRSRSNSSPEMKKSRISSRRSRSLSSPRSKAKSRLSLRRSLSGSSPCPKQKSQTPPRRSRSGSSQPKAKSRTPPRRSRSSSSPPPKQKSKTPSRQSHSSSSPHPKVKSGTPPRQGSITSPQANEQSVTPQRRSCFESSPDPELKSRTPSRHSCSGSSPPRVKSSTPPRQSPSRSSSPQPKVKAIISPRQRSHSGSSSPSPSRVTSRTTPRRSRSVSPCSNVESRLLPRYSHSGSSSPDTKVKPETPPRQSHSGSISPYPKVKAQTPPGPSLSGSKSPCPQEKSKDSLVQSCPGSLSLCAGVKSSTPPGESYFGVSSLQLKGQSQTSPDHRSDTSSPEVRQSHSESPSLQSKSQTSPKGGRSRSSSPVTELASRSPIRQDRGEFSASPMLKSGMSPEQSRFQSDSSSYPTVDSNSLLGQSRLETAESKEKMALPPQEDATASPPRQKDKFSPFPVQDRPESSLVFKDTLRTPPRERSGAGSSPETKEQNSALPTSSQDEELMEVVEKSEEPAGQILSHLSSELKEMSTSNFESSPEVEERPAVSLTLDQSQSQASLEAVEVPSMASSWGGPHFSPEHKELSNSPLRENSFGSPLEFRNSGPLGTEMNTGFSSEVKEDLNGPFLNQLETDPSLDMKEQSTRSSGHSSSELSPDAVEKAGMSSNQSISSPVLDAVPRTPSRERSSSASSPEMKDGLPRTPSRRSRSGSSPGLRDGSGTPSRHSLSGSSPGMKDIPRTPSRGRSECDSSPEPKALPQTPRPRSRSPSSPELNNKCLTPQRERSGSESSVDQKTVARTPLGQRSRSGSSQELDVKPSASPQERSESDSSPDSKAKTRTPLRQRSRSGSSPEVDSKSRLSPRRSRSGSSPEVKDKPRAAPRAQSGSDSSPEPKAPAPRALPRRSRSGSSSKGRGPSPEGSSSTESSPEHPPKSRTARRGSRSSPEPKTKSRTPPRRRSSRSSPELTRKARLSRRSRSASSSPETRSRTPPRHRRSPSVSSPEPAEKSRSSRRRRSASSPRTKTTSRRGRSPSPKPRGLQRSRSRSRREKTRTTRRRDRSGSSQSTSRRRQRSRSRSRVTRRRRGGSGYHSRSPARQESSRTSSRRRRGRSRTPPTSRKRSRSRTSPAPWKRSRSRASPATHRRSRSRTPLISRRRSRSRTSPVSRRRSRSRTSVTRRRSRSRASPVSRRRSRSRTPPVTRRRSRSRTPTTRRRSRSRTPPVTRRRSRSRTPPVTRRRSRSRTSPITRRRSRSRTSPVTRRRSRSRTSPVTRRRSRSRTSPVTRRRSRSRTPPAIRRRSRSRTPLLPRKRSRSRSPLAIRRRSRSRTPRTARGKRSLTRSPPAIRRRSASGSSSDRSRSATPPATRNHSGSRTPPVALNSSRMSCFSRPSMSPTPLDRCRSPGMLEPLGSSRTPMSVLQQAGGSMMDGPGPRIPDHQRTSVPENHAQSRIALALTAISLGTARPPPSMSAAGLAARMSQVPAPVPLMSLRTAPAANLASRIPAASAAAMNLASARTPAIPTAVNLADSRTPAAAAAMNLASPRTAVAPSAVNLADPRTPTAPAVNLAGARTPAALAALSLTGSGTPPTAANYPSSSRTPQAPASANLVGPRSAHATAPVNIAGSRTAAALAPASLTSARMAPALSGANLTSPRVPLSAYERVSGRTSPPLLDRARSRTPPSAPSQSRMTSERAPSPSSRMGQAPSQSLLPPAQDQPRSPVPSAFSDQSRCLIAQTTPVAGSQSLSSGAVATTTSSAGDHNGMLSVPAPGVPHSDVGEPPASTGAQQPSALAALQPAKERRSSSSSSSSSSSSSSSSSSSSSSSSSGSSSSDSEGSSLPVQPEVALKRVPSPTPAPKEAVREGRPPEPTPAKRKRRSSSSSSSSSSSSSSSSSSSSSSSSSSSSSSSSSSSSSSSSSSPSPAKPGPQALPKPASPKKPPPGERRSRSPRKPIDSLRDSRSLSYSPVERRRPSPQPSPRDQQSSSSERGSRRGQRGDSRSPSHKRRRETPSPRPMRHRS

Target: SRRM2^tr0 (near-full-length SRRM2 with TagGFP2 inserted at the endogenous locus) (human) (UniProt Q9UQ35)
Assay: co-IP

- binding: binds
B1: SRRM1 (protein, UniProt Q8IYB3 1-904)
chain: MDAGFFRGTSAEQDNRFSNKQKKLLKQLKFAECLEKKVDMSKVNLEVIKPWITKRVTEILGFEDDVVIEFIFNQLEVKNPDSKMMQINLTGFLNGKNAREFMGELWPLLLSAQENIAGIPSAFLELKKEEIKQRQIEQEKLASMKKQDEDKDKRDKEEKESSREKRERSRSPRRRKSRSPSPRRRSSPVRRERKRSHSRSPRHRTKSRSPSPAPEKKEKTPELPEPSVKVKEPSVQEATSTSDILKVPKPEPIPEPKEPSPEKNSKKEKEKEKTRPRSRSRSKSRSRTRSRSPSHTRPRRRHRSRSRSYSPRRRPSPRRRPSPRRRTPPRRMPPPPRHRRSRSPVRRRRRSSASLSGSSSSSSSSRSRSPPKKPPKRTSSPPRKTRRLSPSASPPRRRHRPSPPATPPPKTRHSPTPQQSNRTRKSRVSVSPGRTSGKVTKHKGTEKRESPSPAPKPRKVELSESEEDKGGKMAAADSVQQRRQYRRQNQQSSSDSGSSSSSEDERPKRSHVKNGEVGRRRRHSPSRSASPSPRKRQKETSPRGRRRRSPSPPPTRRRRSPSPAPPPRRRRTPTPPPRRRTPSPPPRRRSPSPRRYSPPIQRRYSPSPPPKRRTASPPPPPKRRASPSPPPKRRVSHSPPPKQRSSPVTKRRSPSLSSKHRKGSSPSRSTREARSPQPNKRHSPSPRPRAPQTSSSPPPVRRGASSSPQRRQSPSPSTRPIRRVSRTPEPKKIKKAASPSPQSVRRVSSSRSVSGSPEPAAKKPPAPPSPVQSQSPSTNWSPAVPVKKAKSPTPSPSPPRNSDQEGGGKKKKKKKDKKHKKDKKHKKHKKHKKEKAVAAAAAAAVTPAAIAAATTTLAQEEPVAAPEPKKETESEAEDNLDDLEKHLREKALRSMRKAQVSPQS
